Data as given in PubChem BioAssay AID1224826 (NIAID, 2016).
This is a random part of about 17,000 reagents tested. In the full data, about 1,110 (6.6%) got an active call. 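Active means lowered or raised reporter signal; replicate intensities are raw and not normalised per plate.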 A number with no mark means an inactive call. Not all columns of the deposit are shown. Reagent sequences are not shown.

Assay: 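Regulators of Tlr4 signalling leading to Tnf-alpha expression in macrophages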 (primary screen)
System: RAW264.7 G9 macrophages from mouse bearing reporters for p65 (GFP) and the Tnf promoter (mCherry)
Reagent: siRNA pool against mouse genes, 100 nM
Timing: 16 h of LPS stimulation, after 2 days of siRNA transfection
Challenge: bacterial lipopolysaccharide (Salmonella minnesota R595), 10 ng/ml
Measurement: 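Nuclear mCherry signal of the Tnf promoter reporter measured by imaging after background removal, scaled to each plate median and turned into robust z-scores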
Scale: Tnf reporter robust z-score: higher = stronger Tnf promoter reporter signal after LPS
Active means: 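Called active when robust z-score is at most -1.3, matching the median of the Tlr4 knock-down control, or over 3; control wells and wells with under 50 cells never active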
Calls: active = Tnf reporter clearly lowered or raised; inactive = no clear change in Tnf reporter

{"target": "Cradd (GeneID 12905)", "Tnf reporter robust z-score": 0.79, "fewer than 50 cells in well": "enough cells in well"}
{"target": "Or8k33 (GeneID 258404)", "Tnf reporter robust z-score": -0.48, "fewer than 50 cells in well": "enough cells in well"}
{"target": "Zfp418 (GeneID 232854)", "Tnf reporter robust z-score": "-1.58 (active)", "fewer than 50 cells in well": "enough cells in well"}
{"target": "Atp5mf (GeneID 57423)", "Tnf reporter robust z-score": -0.73, "fewer than 50 cells in well": "enough cells in well"}
{"target": "Cypt1 (GeneID 66742)", "Tnf reporter robust z-score": -0.66, "fewer than 50 cells in well": "enough cells in well"}
{"target": "Vmn1r5 (GeneID 171192)", "Tnf reporter robust z-score": 2.94, "fewer than 50 cells in well": "enough cells in well"}
{"target": "Adamts20 (GeneID 223838)", "Tnf reporter robust z-score": -0.97, "fewer than 50 cells in well": "enough cells in well"}
{"target": "Nlrp2 (GeneID 232827)", "Tnf reporter robust z-score": -0.26, "fewer than 50 cells in well": "enough cells in well"}
{"target": "Adhfe1 (GeneID 76187)", "Tnf reporter robust z-score": 0.85, "fewer than 50 cells in well": "enough cells in well"}
{"target": "Ndor1 (GeneID 78797)", "Tnf reporter robust z-score": -0.61, "fewer than 50 cells in well": "enough cells in well"}
{"target": "Klra8 (GeneID 16639)", "Tnf reporter robust z-score": -0.41, "fewer than 50 cells in well": "enough cells in well"}
{"target": "Mpp2 (GeneID 50997)", "Tnf reporter robust z-score": 1.19, "fewer than 50 cells in well": "enough cells in well"}
